Structures can show the parent of a compound that is named as a salt.
Tested on: iPSC-CMs, iPSC-ECs and HUVECs phenotypes
Test: ToxPi 2.0 integration of POD values and physicochemical descriptors
Design: species or system human
Conditions: for huvec.mtl.18hr ToxPi / huvec.tlps.18hr ToxPi / huvec.tta.18hr ToxPi / huvec.ttl.18hr ToxPi / huvec.cyto.24hr ToxPi / huvec.mito.24hr ToxPi / huvec.mitoint.24hr ToxPi / huvec.nma.24hr ToxPi / huvec.tc.24hrs ToxPi: HUVECs; for huvec.mtl.18hr ToxPi / huvec.tlps.18hr ToxPi / huvec.tta.18hr ToxPi / huvec.ttl.18hr ToxPi / huvec.cyto.24hr ToxPi / huvec.mito.24hr ToxPi / huvec.mitoint.24hr ToxPi / huvec.nma.24hr ToxPi / huvec.tc.24hrs ToxPi / endo.mtl.18hr ToxPi / endo.tlps.18hr ToxPi / endo.tta.18hr ToxPi / endo.ttl.18hr ToxPi / endo.cyto.24hr ToxPi / endo.mito.24hr ToxPi / endo.mitoint.24hr ToxPi / endo.nma.24hr ToxPi / endo.tc.24hrs ToxPi: scaled from POD; for endo.mtl.18hr ToxPi / endo.tlps.18hr ToxPi / endo.tta.18hr ToxPi / endo.ttl.18hr ToxPi: iPSC-EC tube formation; for endo.cyto.24hr ToxPi / endo.mito.24hr ToxPi / endo.mitoint.24hr ToxPi / endo.nma.24hr ToxPi / endo.tc.24hrs ToxPi: iPSC-EC; for ToxPi_Score_Bioactivity: Biological Activity ToxPi, POD values of iPSC-CM, iPSC-EC and HUVEC phenotypes integrated; for ToxPi_Score_ChemBiol: Chemical-Biological Integration ToxPi, in vitro data plus physicochemical descriptors
Text: Phenotypic responses were quantitatively assessed using concentration–response modeling as detailed elsewhere ([Sirenko et al. 2017]). Briefly, phenotypic readouts were normalized to vehicle controls and fit to a four-parameter logistic model in R studio software (version 3.1.1; R Development Core Team). Following EPA guidance on dose–response modeling, a cutoff of one standard deviation across means of vehicle control (i.e., 0.5% vol/vol DMSO in cell culture media) wells was applied to determine the point-of-departure (POD) values ([U.S. EPA 2012]). In the absence of a concentration–response, the highest tested concentration (i.e., 100μM ) was assigned as “no observable adverse effect level.” The concentration–response assessment R script, as well as templates for vehicle and concentration–response data, are available as a supplement to Sirenko et al. ([2017]). The ability of physicochemical properties to predict differences in PODs were evaluated by multiregression and mixed-effects modeling using R.
POD values were then integrated using ToxPi 2.0 ([Marvel et al. 2018]) software. In ToxPi, each slice is representative of cell type– and time-point–specific phenotypes. The area of each slice is proportional to the relative value (e.g., bioactivity or physicochemical descriptor value) of the chemical within the data set. ToxPi scores were used to rank PCBs and their metabolites according to their overall bioactivity and to determine variability in total observable biological responses and chemical characteristics for each major metabolite class and chlorination status (mono-, hexa-chlorinated). Additional visualizations such as dumbbell and principal components analysis plots were generated in R Studio (version 1.1.456; R version 3.5.1; R Development Core Team) using the ggplot2 package.

Structure (SMILES) | huvec.mtl.18hr ToxPi | huvec.tlps.18hr ToxPi | huvec.tta.18hr ToxPi | huvec.ttl.18hr ToxPi | huvec.cyto.24hr ToxPi | huvec.mito.24hr ToxPi | huvec.mitoint.24hr ToxPi | huvec.nma.24hr ToxPi | huvec.tc.24hrs ToxPi | endo.mtl.18hr ToxPi | endo.tlps.18hr ToxPi | endo.tta.18hr ToxPi | endo.ttl.18hr ToxPi | endo.cyto.24hr ToxPi | endo.mito.24hr ToxPi | endo.mitoint.24hr ToxPi | endo.nma.24hr ToxPi | endo.tc.24hrs ToxPi | ToxPi_Score_Bioactivity | ToxPi_Score_ChemBiol | further results
Oc1ccc(-c2ccc(Cl)cc2)cc1 [4'-OH PCB3] | 0.99 | 1.00 | 0.58 | 0.45 | 0.28 | 0.39 | 0.43 | 0.34 | 0.28 | 0.46 | 1.00 | 0.41 | 0.41 | 0.16 | 0.16 | 0.00 | 0.00 | 0.12 |  |  | cm.amp.avg.24hrs ToxPi (iPSC-CM): 1.00; cm.amp.avg.90min ToxPi (iPSC-CM): 0.59; cm.amp.cv.24hrs ToxPi (iPSC-CM): 0.84; cm.amp.cv.90min ToxPi (iPSC-CM): 0.33; cm.bpm.24hrs ToxPi (iPSC-CM): 0.33; cm.bpm.90min ToxPi (iPSC-CM): 0.82; cm.cam.24hrs ToxPi (iPSC-CM): 0.15; cm.cam.90min ToxPi (iPSC-CM): 0.86; cm.decay.rise.24hrs ToxPi (iPSC-CM): 0.24; cm.decay.rise.90min ToxPi (iPSC-CM): 0.57; cm.mii.24hrs ToxPi (iPSC-CM): 0.50; cm.mii.90min ToxPi (iPSC-CM): 0.68; cm.mito.24hrs ToxPi (iPSC-CM): 0.21; cm.mito.90min ToxPi (iPSC-CM): 0.88; cm.spacing.cv.24hrs ToxPi (iPSC-CM): 0.19; cm.spacing.cv.90min ToxPi (iPSC-CM): 0.08; cm.tc.24hrs ToxPi (iPSC-CM): 0.22; cm.tc.90min ToxPi (iPSC-CM): 0.90
Oc1ccc(-c2ccc(Cl)cc2)cc1 [4'-OH-PCB 3] |  |  |  |  |  |  |  |  |  |  |  |  |  |  |  |  |  |  | 0.6158 | 0.4936 | 
COc1ccc(-c2ccc(Cl)cc2)cc1 [4'-OMe PCB3] | 0.59 | 0.13 | 0.48 | 0.38 | 0.25 | 0.33 | 0.23 | 0.54 | 0.25 | 0.35 | 0.34 | 0.23 | 0.24 | 0.00 | 0.00 | 0.22 | 0.00 | 0.00 |  |  | cm.amp.avg.24hrs ToxPi (iPSC-CM): 0.15; cm.amp.avg.90min ToxPi (iPSC-CM): 0.15; cm.amp.cv.24hrs ToxPi (iPSC-CM): 0.00; cm.amp.cv.90min ToxPi (iPSC-CM): 0.23; cm.bpm.24hrs ToxPi (iPSC-CM): 0.43; cm.bpm.90min ToxPi (iPSC-CM): 0.42; cm.cam.24hrs ToxPi (iPSC-CM): 0.0252; cm.cam.90min ToxPi (iPSC-CM): 0.00; cm.decay.rise.24hrs ToxPi (iPSC-CM): 0.57; cm.decay.rise.90min ToxPi (iPSC-CM): 0.00; cm.mii.24hrs ToxPi (iPSC-CM): 0.00; cm.mii.90min ToxPi (iPSC-CM): 0.00; cm.mito.24hrs ToxPi (iPSC-CM): 0.00; cm.mito.90min ToxPi (iPSC-CM): 0.00; cm.spacing.cv.24hrs ToxPi (iPSC-CM): 0.50; cm.spacing.cv.90min ToxPi (iPSC-CM): 0.07; cm.tc.24hrs ToxPi (iPSC-CM): 0.00; cm.tc.90min ToxPi (iPSC-CM): 0.00
COc1ccc(-c2ccc(Cl)cc2)cc1 [4'-OMe-PCB 3, 4′-methoxy-4-chlorobiphenyl] |  |  |  |  |  |  |  |  |  |  |  |  |  |  |  |  |  |  | 0.2516 | 0.248 | 
O=S(=O)(O)Oc1ccc(-c2ccc(Cl)cc2)cc1 [4'-PCB 3 sulfate] |  |  |  |  |  |  |  |  |  |  |  |  |  |  |  |  |  |  | 0.1398 | 0.244 | 
O=S(=O)(O)Oc1ccc(-c2ccc(Cl)cc2)cc1 [4'-yl PCB 3 sulfate] | 0.49 | 0.00 | 0.27 | 0.00 | 0.00 | 0.00 | 0.00 | 0.00 | 0.00 | 0.33 | 0.34 | 0.16 | 0.20 | 0.00 | 0.00 | 0.00 | 0.00 | 0.00 |  |  | cm.amp.avg.24hrs ToxPi (iPSC-CM): 0.00; cm.amp.avg.90min ToxPi (iPSC-CM): 0.66; cm.amp.cv.24hrs ToxPi (iPSC-CM): 0.00; cm.amp.cv.90min ToxPi (iPSC-CM): 0.26; cm.bpm.24hrs ToxPi (iPSC-CM): 0.00; cm.bpm.90min ToxPi (iPSC-CM): 0.19; cm.cam.24hrs ToxPi (iPSC-CM): 0.00; cm.cam.90min ToxPi (iPSC-CM): 0.00; cm.decay.rise.24hrs ToxPi (iPSC-CM): 0.00; cm.decay.rise.90min ToxPi (iPSC-CM): 0.46; cm.mii.24hrs ToxPi (iPSC-CM): 0.17; cm.mii.90min ToxPi (iPSC-CM): 0.00; cm.mito.24hrs ToxPi (iPSC-CM): 0.00; cm.mito.90min ToxPi (iPSC-CM): 0.00; cm.spacing.cv.24hrs ToxPi (iPSC-CM): 0.00; cm.spacing.cv.90min ToxPi (iPSC-CM): 0.10; cm.tc.24hrs ToxPi (iPSC-CM): 0.00; cm.tc.90min ToxPi (iPSC-CM): 0.00
O=C1C=CC(=O)C(c2ccc(Cl)cc2)=C1 [4-Cl-BQ, 2-(4-Chlorophenyl)benzo-2,5-quinone] | 0.99 | 0.56 | 1.00 | 0.90 | 1.00 | 0.85 | 0.99 | 0.67 | 1.00 | 0.58 | 0.73 | 0.13 | 0.20 | 0.57 | 0.57 | 0.27 | 0.36 | 0.65 | 0.6912 | 0.5971 | cm.amp.avg.24hrs ToxPi (iPSC-CM): 0.33; cm.amp.avg.90min ToxPi (iPSC-CM): 0.32; cm.amp.cv.24hrs ToxPi (iPSC-CM): 0.31; cm.amp.cv.90min ToxPi (iPSC-CM): 0.25; cm.bpm.24hrs ToxPi (iPSC-CM): 0.66; cm.bpm.90min ToxPi (iPSC-CM): 0.16; cm.cam.24hrs ToxPi (iPSC-CM): 1.00; cm.cam.90min ToxPi (iPSC-CM): 0.40; cm.decay.rise.24hrs ToxPi (iPSC-CM): 0.86; cm.decay.rise.90min ToxPi (iPSC-CM): 0.21; cm.mii.24hrs ToxPi (iPSC-CM): 0.20; cm.mii.90min ToxPi (iPSC-CM): 0.89; cm.mito.24hrs ToxPi (iPSC-CM): 0.70; cm.mito.90min ToxPi (iPSC-CM): 0.39; cm.spacing.cv.24hrs ToxPi (iPSC-CM): 0.75; cm.spacing.cv.90min ToxPi (iPSC-CM): 0.31; cm.tc.24hrs ToxPi (iPSC-CM): 0.00; cm.tc.90min ToxPi (iPSC-CM): 0.00
Oc1ccc(-c2cccc(Cl)c2)cc1Cl [4-OH PCB11] | 0.59 | 0.20 | 0.00 | 0.48 | 0.44 | 0.53 | 0.58 | 0.59 | 0.44 | 0.18 | 0.10 | 0.17 | 0.17 | 0.15 | 0.15 | 0.28 | 0.41 | 0.08 |  |  | cm.amp.avg.24hrs ToxPi (iPSC-CM): 0.00; cm.amp.avg.90min ToxPi (iPSC-CM): 0.70; cm.amp.cv.24hrs ToxPi (iPSC-CM): 0.66; cm.amp.cv.90min ToxPi (iPSC-CM): 0.35; cm.bpm.24hrs ToxPi (iPSC-CM): 0.36; cm.bpm.90min ToxPi (iPSC-CM): 0.16; cm.cam.24hrs ToxPi (iPSC-CM): 0.33; cm.cam.90min ToxPi (iPSC-CM): 0.53; cm.decay.rise.24hrs ToxPi (iPSC-CM): 0.29; cm.decay.rise.90min ToxPi (iPSC-CM): 0.52; cm.mii.24hrs ToxPi (iPSC-CM): 0.22; cm.mii.90min ToxPi (iPSC-CM): 0.42; cm.mito.24hrs ToxPi (iPSC-CM): 0.55; cm.mito.90min ToxPi (iPSC-CM): 0.37; cm.spacing.cv.24hrs ToxPi (iPSC-CM): 0.44; cm.spacing.cv.90min ToxPi (iPSC-CM): 0.09; cm.tc.24hrs ToxPi (iPSC-CM): 0.56; cm.tc.90min ToxPi (iPSC-CM): 0.42
Oc1cc(Cl)c(-c2cc(Cl)ccc2Cl)cc1Cl [4-OH PCB52] | 0.56 | 0.60 | 0.13 | 0.07 | 0.48 | 0.54 | 0.75 | 0.00 | 0.48 | 0.25 | 0.40 | 0.17 | 0.17 | 0.35 | 0.35 | 0.11 | 0.08 | 0.32 |  |  | cm.amp.avg.90min ToxPi (90min): 0.29; cm.amp.cv.90min ToxPi (90min): 0.27; cm.bpm.90min ToxPi (90min): 1.00; cm.cam.90min ToxPi (90min): 1.00; cm.decay.rise.90min ToxPi (90min): 0.20; cm.mii.90min ToxPi (90min): 0.29; cm.mito.90min ToxPi (90min): 1.00; cm.spacing.cv.90min ToxPi (90min): 0.14; cm.tc.90min ToxPi (90min): 1.00; cm.amp.avg.24hrs ToxPi (24hrs): 0.19; cm.amp.cv.24hrs ToxPi (24hrs): 0.10; cm.bpm.24hrs ToxPi (24hrs): 0.45; cm.cam.24hrs ToxPi (24hrs): 0.15; cm.decay.rise.24hrs ToxPi (24hrs): 0.26; cm.mii.24hrs ToxPi (24hrs): 0.11; cm.mito.24hrs ToxPi (24hrs): 0.22; cm.spacing.cv.24hrs ToxPi (24hrs): 0.35; cm.tc.24hrs ToxPi (24hrs): 0.20
Oc1ccc(-c2cccc(Cl)c2)cc1Cl [4-OH-PCB 11] |  |  |  |  |  |  |  |  |  |  |  |  |  |  |  |  |  |  | 0.4299 | 0.4266 | 
Oc1cc(Cl)c(-c2cc(Cl)ccc2Cl)cc1Cl [4-OH-PCB 52] |  |  |  |  |  |  |  |  |  |  |  |  |  |  |  |  |  |  | 0.4609 | 0.5583 | 

— paper PMC7377239, “Cardiovascular Effects of Polychlorinated Biphenyls and Their Major Metabolites” (Environmental Health Perspectives, 2020)
